Measurements taken from patent publication EP1289507B1, “USE OF AN ALDOSTERONE ANTAGONIST FOR THE TREATMENT OR PROPHYLAXIS OF ALDOSTERONE-MEDIATED PATHOGENIC EFFECTS” (priority 2000, dated 2001).

Key:
[1] = tested on: captopril-treated, saline-drinking SHRSP; experiment: Protocol 2: Angiotensin II-induced renal damage in captopril-treated saline-drinking SHRSP; type: in vivo, male SHRSP/A3N; conditions: for Absolute kidney weight at autopsy / Body weight: end of the experiment
Protocol: (§1) Animals. Studies were conducted in accordance with institutional guidelines using male SHRSP/A3N (generations F-75 to F-78), n = 37, from our local colony. These animals were bred from NIH stock, derived from the SHRSP/A3N substrain described originally by Okamoto and coworkers (Okamoto K et al. Circ. Res. 34 and 35 (suppl I):I-143-I-153.). All animals were housed in a room maintained on a 12:12-h light:dark-cycle and an ambient temperature of 22 ± 1°C in the Animal Care Facility at New York Medical College. Rats were weaned at 4 weeks of age and allowed free access to Purina Lab Chow 5001 (Ralston Purina, St. Louis, MO) and tap water until the initiation of experimental protocols.
SHRSP were placed on Stroke-Prone Rodent Diet (#39-288, Zeigler Bros Inc., Gardners, PA) and 1% NaCl drinking solution ad libitum starting at 8.3 weeks of age. […] Animals were handled and weighed daily. Urine samples were collected for the assessment of proteinuria. Systolic blood pressure and heart rate were measured each week. After 2 weeks of treatment, animals were decapitated, trunk blood was collected into chilled EDTA tubes, and the kidneys were removed, blotted dry, and immediately weighed. Coronal sections of kidney were fixed and later processed for light microscopic evaluation.
(§2) Assays and Analyses. Systolic blood pressure and heart rate of awake animals were measured by tail-cuff plethysmography using a Natsume KN-210 manometer and tachometer (Peninsula Laboratories Inc., Belmont, CA). Rats were warmed at 37°C for 10 min and allowed to rest quietly in a Lucite chamber before measurement of blood pressure. Measurements of urine volume were made gravimetrically. Urinary protein concentration was determined by the sulfosalicylic acid turbidity method. Plasma aldosterone was measured by radioimmunoassay using ^125I-aldosterone as a tracer (Coat-a Count Aldosterone, Diagnostic Products Co., Los Angeles, CA).
Histology. Kidneys were preserved in 10% phosphate-buffered formalin. Coronal sections (2-3 µm) were stained with hematoxylin and eosin and examined by light microscopy in a blinded fashion as previously described (Stier CT et al. J Pharmacol Exp Ther (1992) 260:1410-1415). Glomerular damage was categorized as ischemic or thrombotic. Ischemic lesions were defined as retraction of glomerular capillary tufts with or without appreciable mesangiolysis. Glomerular thrombotic lesions were defined as any one of a combination of the following: segmental to global fibrinoid necrosis, focal thrombosis of glomerular capillaries, swelling and proliferation of intracapillary (endothelial and mesangial) and/or extracapillary cells (crescents), and expansion of reticulated mesangial matrix with or without significant hypercellularity. […] Vascular thrombotic lesions were defined as any one or a combination of the following: mural fibrinoid necrosis, extravasation and fragmentation of red blood cells, and luminal and/or mural thrombosis. […] Vascular damage was expressed as the number of arteries and arterioles with lesions per 100 glomeruli. The presence of casts and tubular (ischemic) retraction and simplification was assessed semiquantitatively.
Statistical Analysis. Significant effects with respect to treatment and time were determined by two-way analysis of variance. Data with only one grouping variable were analyzed statistically by Student's unpaired t tests. […] Data were analyzed using version 2.01 of the GraphPad Prism statistical software package (GraphPad Software Inc., San Diego, CA). […]

saline-drinking SHRSP = experiment: Protocol 1: renal pathologic changes in saline-drinking SHRSP; type: in vivo, male SHRSP/A3N; conditions: 100 mg/kg/d, 5 weeks
Protocol: as §1
Eighteen SHRSP were given 1% NaCl to drink and were fed Stroke-Prone Rodent Diet (#39-288, Zeigler Brothers, Inc., Gardners, PA) starting at 8.1 weeks of age. […] Systolic arterial pressure and heart rate were measured each week in awake rats. […]
as §2, with “CA). […]” for “CA). Rats were warmed at 37°C for 10 min and allowed to rest quietly in a Lucite chamber before measurement of blood pressure. Measurements of urine volume were made gravimetrically.”, “CA). […]” for “CA).”

[2] = Plasma renin activity and serum aldosterone as a function of the eplerenone dose (Figure 12); type: in vivo, human subject; conditions: increasing doses of eplerenone

SMILES | plasma aldosterone concentration ([1]; captopril alone, or captopril plus angiotensin II plus eplerenone, Figure A-18) | Absolute kidney weight at autopsy [1] | Body weight [1] | Absolute kidney weight at autopsy (saline-drinking SHRSP) | terminal body weight (saline-drinking SHRSP) | plasma renin activity [2] | serum aldosterone [2]
C[C@H](CS)C(=O)N1CCC[C@H]1C(=O)O [Captopril, captopril, reference compound] | 107 ± 26 pg/mL | 2.56 ± 0.06 g | 258 ± 6 g | – | – | – | –
COC(=O)[C@@H]1CC2=CC(=O)CC[C@]2(C)[C@@]23O[C@@H]2C[C@@]2(C)[C@@H](CC[C@@]24CCC(=O)O4)[C@H]13 [Eplerenone, Pregn-4-ene-7,21-dicarboxylic acid, 9,11-epoxy-17-hydroxy-3-oxo-, γ-lactone, methyl ester, (7α, 11α, 17β)-] | – | 2.00 ± 0.03 g | 234 ± 5 g | 2.58 ± 0.06 g | 279 ± 7 g | increased levels of plasma renin activity | increased levels of serum aldosterone
